Test [1] concerns the target mesothelin (soluble, recombinant) (UniProt Q13421). Kind of test: Octet, IgG captured on anti-human Fc (AHC) biosensor, 125 nM mesothelin, 5 min association, 5 min dissociation [panel MSLN-20]. (In general: In BLI a coated tip is dipped into the sample, and binding shifts an interference pattern.)
The target is the same in test [2]. Kind of test: Octet, IgG captured on anti-human Fc (AHC) biosensor, 125 nM mesothelin, 5 min association, 5 min dissociation [con't), panel MSLN-25].
Test [3] shares this target. The experiment in a line: Octet, IgG captured on anti-human Fc (AHC) biosensor, 125 nM mesothelin, 5 min association, 5 min dissociation [con't), panel MSLN-30].
For test [4] the target is unchanged. Kind of test: Octet, IgG captured on anti-human Fc (AHC) biosensor, 125 nM mesothelin, 5 min association, 5 min dissociation [con't), panel MSLN-31].
Test [5] shares this target. The experiment in a line: Octet, IgG captured on anti-human Fc (AHC) biosensor, 125 nM mesothelin, 5 min association, 5 min dissociation [con't), panel MSLN-29].
For test [6] the target is unchanged. Kind of test: Octet, IgG captured on anti-human Fc (AHC) biosensor, 125 nM mesothelin, 5 min association, 5 min dissociation [con't), panel MSLN-39].
Test [7] shares this target. Kind of test: Octet, IgG captured on anti-human Fc (AHC) biosensor, 125 nM mesothelin, 5 min association, 5 min dissociation [con't), panel MSLN-37].
Test [8] shares this target. Kind of test: Octet, IgG captured on anti-human Fc (AHC) biosensor, 125 nM mesothelin, 5 min association, 5 min dissociation [con't), panel MSLN-33].
Test [9] shares this target. The experiment in a line: Octet, IgG captured on anti-human Fc (AHC) biosensor, 125 nM mesothelin, 5 min association, 5 min dissociation [con't), panel MSLN-26].
Test [10] shares this target. Kind of test: Octet, IgG captured on anti-human Fc (AHC) biosensor, 125 nM mesothelin, 5 min association, 5 min dissociation [con't), panel MSLN-32].
Test [11] has the same target. The experiment in a line: Octet, IgG captured on anti-human Fc (AHC) biosensor, 125 nM mesothelin, 5 min association, 5 min dissociation [con't), panel MSLN-35].
The target is the same in test [12]. The experiment in a line: Octet, IgG captured on anti-human Fc (AHC) biosensor, 125 nM mesothelin, 5 min association, 5 min dissociation [panel MSLN-22].
Test [13] shares this target. Kind of test: Octet, IgG captured on anti-human Fc (AHC) biosensor, 125 nM mesothelin, 5 min association, 5 min dissociation [con't), panel MSLN-27].
For test [14] the target is unchanged. The experiment in a line: Octet, IgG captured on anti-human Fc (AHC) biosensor, 125 nM mesothelin, 5 min association, 5 min dissociation [con't), panel MSLN-34].
Test [15] shares this target. Kind of test: Octet, IgG captured on anti-human Fc (AHC) biosensor, 125 nM mesothelin, 5 min association, 5 min dissociation [con't), panel MSLN-38].
Test [16] has the same target. Kind of test: Octet, IgG captured on anti-human Fc (AHC) biosensor, 125 nM mesothelin, 5 min association, 5 min dissociation [panel MSLN-23].

Sequences of proteins named here, by UniProt entry; tags and fusion partners are left off. A change or cut given only in a name is not applied to a line headed by its entry. A line that says so, or that is headed by a name, gives the form on record, which may keep a tag or linker.
mesothelin (soluble, recombinant) (Q13421, form named): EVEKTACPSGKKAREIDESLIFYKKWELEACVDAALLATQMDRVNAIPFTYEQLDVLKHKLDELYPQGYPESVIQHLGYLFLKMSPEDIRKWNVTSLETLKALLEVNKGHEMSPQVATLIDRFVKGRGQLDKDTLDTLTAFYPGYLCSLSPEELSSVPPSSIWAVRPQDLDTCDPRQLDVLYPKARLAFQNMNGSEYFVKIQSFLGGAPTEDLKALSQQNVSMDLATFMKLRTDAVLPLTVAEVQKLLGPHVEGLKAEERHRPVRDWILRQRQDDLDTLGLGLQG

These are yes or no findings as the source states them, for the method shown. Some entries that bind do so weakly or less than the wild type.

B1: MSLN-20 (antibody, V domains shown)
VH: QVQLQESGPGLVKPSETLSLTCTVSGGSVSSYYSTWSWIRQPPGKGLEWIGYIYYSGSTNYNPSLKSRVTISVDTSKNQFSLKLSSVTAADTAVYYCARDFVLSGFDIWGQGTMVTVSS
VL: DIQMTQSPSSLSASVGDRVTITCRASQSSRYYVNWYQQKPGKAPKLLIYAASSLQSGVPSRFSGSGSGTDFTLTISSLQPEDFATYYCQQPYDASYTFGGGTKVEIK
As for B1, the binding entry in test [1] was “binds”.

B2: MSLN-25 (antibody, V domains shown)
VH: QVQLQESGPGLVKPSETLSLTCTVSGGSVSSYHDLWSWIRQPPGKGLEWIGYIYYSGSTNYNPSLKSRVTISVDTSKNQFSLKLSSVTAADTAVYYCAREDALTGFDIWGQGTMVTVSS
VL: DIQMTQSPSSLSASVGDRVTITCRASQSISSYLNWYQQKPGKAPKLLIYAASSLQSGVPSRFSGSGSGTDFTLTISSLQPEDFATYYCQQPYDASYTFGGGTKVEIK
As to B2, the binding entry in test [2] is reported as “binds”.

B3: MSLN-30 (antibody, V domains shown)
VH: QVQLQESGPGLVKPSETLSLTCTVSGGSVSSRDDLWSWIRQPPGKGLEWIGYIYYSGSTNYNPSLKSRVTISVDTSKNQFSLKLSSVTAADTAVYYCARDFVLSGFDIWGQGTMVTVSS
VL: DIQMTQSPSSLSASVGDRVTITCRASQSISSYLNWYQQKPGKAPKLLIYAASSLQSGVPSRFSGSGSGTDFTLTISSLQPEDFATYYCQQPYDASYTFGGGTKVEIK
Regarding B3, the binding result in [3] was “binds”.

B4: MSLN-31 (antibody, V domains shown)
VH: QVQLQESGPGLVKPSETLSLTCTVSGGSVSSFTDTWSWIRQPPGKGLEWIGYIYYSGSTNYNPSLKSRVTISVDTSKNQFSLKLSSVTAADTAVYYCARDFVLSGFDIWGQGTMV
VL: DIQMTQSPSSLSASVGDRVTITCRASQSISSYLNWYQQKPGKAPKLLIYAASSLQSGVPSRFSGSGSGTDFTLTISSLQPEDFATYYCQQPYDASYTFGGGTKVEIK
For B4, in test [4], the binding result is recorded as “binds”.

B5: MSLN-29 (antibody, V domains shown)
VH: QVQLQESGPGLVKPSETLSLTCTVSGGSVSSYHDLWSWIRQPPGKGLEWIGYIYYSGSTNYNPSLKSRVTISVDTSKNQFSLKLSSVTAADTAVYYCARDFVLSGFDIWGQGTMVTVSS
VL: DIQMTQSPSSLSASVGDRVTITCRASQSISSYLNWYQQKPGKAPKLLIYAASSLQSGVPSRFSGSGSGTDFTLTISSLQPEDFATYYCQQPYDASYTFGGGTKVEIK
As to B5, the binding entry in [5] is “binds”.

B6: MSLN-39 IgG (antibody, V domains shown)
VH: QVQLQESGPGLVKPSETLSLTCTVSGGSVSSFTDTWSWIRQPPGKGLEWIGYIYYSGSTNYNPSLKSRVTISVDTSKNQFSLKLSSVTAADTAVYYCAREDALTGFDIWGQGTMVTVSS
VL: DIQMTQSPSSLSASVGDRVTITCRASQSSRYYVNWYQQKPGKAPKLLIYAASSLQSGVPSRFSGSGSGTDFTLTISSLQPEDFATYYCQQSYDASYTFGGGTKVEIK
B6: the binding entry in test [6] is “binds”.

B7: MSLN-37 (antibody, V domains shown)
VH: QVQLQESGPGLVKPSETLSLTCTVSGGSVSSYHDLWSWIRQPPGKGLEWIGYIYYSGSTNYNPSLKSRVTISVDTSKNQFSLKLSSVTAADTAVYYCAREDALTGFDIWGQGTMVTVSS
VL: DIQMTQSPSSLSASVGDRVTITCRASQSSRYYVNWYQQKPGKAPKLLIYAASSLQSGVPSRFSGSGSGTDFTLTISSLQPEDFATYYCQQSYDASYTFGGGTKVEIK
For the molecule B7, the binding entry in test [7] is “binds”.

B8: MSLN-33 (antibody, V domains shown)
VH: QVQLQESGPGLVKPSETLSLTCTVSGGSVSSYHDLWSWIRQPPGKGLEWIGYIYYSGSTNYNPSLKSRVTISVDTSKNQFSLKLSSVTAADTAVYYCARDNVFTGFDIWGQGTMVTVSS
VL: DIQMTQSPSSLSASVGDRVTITCRASQSISSYLNWYQQKPGKAPKLLIYAASSLQSGVPSRFSGSGSGTDFTLTISSLQPEDFATYYCQQPYDASYTFGGGTKVEIK
Take B8: the binding result in test [8] was “binds”.

B9: MSLN-26 (antibody, V domains shown)
VH: QVQLQESGPGLVKPSETLSLTCTVSGGSVSSRDDLWSWIRQPPGKGLEWIGYIYYSGSTNYNPSLKSRVTISVDTSKNQFSLKLSSVTAADTAVYYCAREDALTGFDIWGQGTMVTVSS
VL: DIQMTQSPSSLSASVGDRVTITCRASQSISSYLNWYQQKPGKAPKLLIYAASSLQSGVPSRFSGSGSGTDFTLTISSLQPEDFATYYCQQPYDASYTFGGGTKVEIK
On to B9, for which, in [9], the binding entry was “binds”.

B10: MSLN-32 (antibody, V domains shown)
VH: QVQLQESGPGLVKPSETLSLTCTVSGGSVSSYYSTWSWIRQPPGKGLEWIGYIYYSGSTNYNPSLKSRVTISVDTSKNQFSLKLSSVTAADTAVYYCARDFVLSGFDIWGQGTMVTVSS
VL: DIQMTQSPSSLSASVGDRVTITCRASQSISSYLNWYQQKPGKAPKLLIYAASSLQSGVPSRFSGSGSGTDFTLTISSLQPEDFATYYCQQPYDASYTFGGGTKVEIK
B10: the binding result in [10] is “binds”.

B11: MSLN-35 (antibody, V domains shown)
VH: QVQLQESGPGLVKPSETLSLTCTVSGGSVSSFTDTWSWIRQPPGKGLEWIGYIYYSGSTNYNPSLKSRVTISVDTSKNQFSLKLSSVTAADTAVYYCARDNVFTGFDIWGQGTMVTVSS
VL: DIQMTQSPSSLSASVGDRVTITCRASQSISSYLNWYQQKPGKAPKLLIYAASSLQSGVPSRFSGSGSGTDFTLTISSLQPEDFATYYCQQPYDASYTFGGGTKVEIK
On to B11, for which, in test [11], the binding entry is on record as “binds”.

B12: MSLN-22 (antibody, V domains shown)
VH: QVQLQESGPGLVKPSETLSLTCTVSGGSVSSRDDLWSWIRQPPGKGLEWIGYIYYSGSTNYNPSLKSRVTISVDTSKNQFSLKLSSVTAADTAVYYCARDNVFTGFDIWGQGTMVTVSS
VL: DIQMTQSPSSLSASVGDRVTITCRASQSSRYYVNWYQQKPGKAPKLLIYAASSLQSGVPSRFSGSGSGTDFTLTISSLQPEDFATYYCQQPYDASYTFGGGTKVEIK
Take B12: the binding result in test [12] was “binds”.

B13: MSLN-27 (antibody, V domains shown)
VH: QVQLQESGPGLVKPSETLSLTCTVSGGSVSSFTDTWSWIRQPPGKGLEWIGYIYYSGSTNYNPSLKSRVTISVDTSKNQFSLKLSSVTAADTAVYYCAREDALTGFDIWGQGTMVTVSS
VL: DIQMTQSPSSLSASVGDRVTITCRASQSISSYLNWYQQKPGKAPKLLIYAASSLQSGVPSRFSGSGSGTDFTLTISSLQPEDFATYYCQQPYDASYTFGGGTKVEIK
For the molecule B13, in [13], the binding result is listed as “binds”.

B14: MSLN-34 (antibody, V domains shown)
VH: QVQLQESGPGLVKPSETLSLTCTVSGGSVSSRDDLWSWIRQPPGKGLEWIGYIYYSGSTNYNPSLKSRVTISVDTSKNQFSLKLSSVTAADTAVYYCARDNVFTGFDIWGQGTMVTVSS
VL: DIQMTQSPSSLSASVGDRVTITCRASQSISSYLNWYQQKPGKAPKLLIYAASSLQSGVPSRFSGSGSGTDFTLTISSLQPEDFATYYCQQPYDASYTFGGGTKVEIK
Turning to B14, in test [14], the binding entry is listed as “binds”.

B15: MSLN-38 (antibody, V domains shown)
VH: QVQLQESGPGLVKPSETLSLTCTVSGGSVSSRDDLWSWIRQPPGKGLEWIGYIYYSGSTNYNPSLKSRVTISVDTSKNQFSLKLSSVTAADTAVYYCAREDALTGFDIWGQGTMVTVSS
VL: DIQMTQSPSSLSASVGDRVTITCRASQSSRYYVNWYQQKPGKAPKLLIYAASSLQSGVPSRFSGSGSGTDFTLTISSLQPEDFATYYCQQSYDASYTFGGGTKVEIK
With B15, the binding entry in test [15] is reported as “binds”.

B16: MSLN-23 (antibody, V domains shown)
VH: QVQLQESGPGLVKPSETLSLTCTVSGGSVSSFTDTWSWIRQPPGKGLEWIGYIYYSGSTNYNPSLKSRVTISVDTSKNQFSLKLSSVTAADTAVYYCARDNVFTGFDIWGQGTMVTVSS
VL: DIQMTQSPSSLSASVGDRVTITCRASQSSRYYVNWYQQKPGKAPKLLIYAASSLQSGVPSRFSGSGSGTDFTLTISSLQPEDFATYYCQQPYDASYTFGGGTKVEIK
Regarding B16, the binding result in test [16] was “binds”.

The values are drawn from patent US20260209319A1.
